Results: patent US20260159618A1, “COMPOUND, POLYMERIZABLE COMPOSITION, POLYMER, HOLOGRAPHIC RECORDING MEDIUM, OPTICAL MATERIAL, AND OPTICAL COMPONENT” (Mitsubishi Chemical Corporation, priority 2022, published 2026)

Test: Holographic recording, total Δn of holographic recording medium using the monomer
Design: key to total Δn (dash symbol): ⊚: 0.019 or more; ◯: 0.015 or more and less than 0.019; Δ: 0.010 or more and less than 0.015; x: less than 0.010; —: impossible to measure
Conditions: for total Δn (dash symbol): sample not suitable for multiplex recording; for total Δn: 405 nm two-beam recording, 151 multiple recordings, 0.5 mm recording layer, 58.3 μmol/g monomer, maximum value

Row | SMILES | total Δn (dash symbol) | total Δn
1 | C=CC(=O)OCCCCOc1c(-c2cccc3c2sc2ccccc23)cc(-c2cccc3c2sc2ccccc23)cc1-c1cccc2c1sc1ccccc12 [Compound R-4, reference compound] | — | 
2 | C=CC(=O)OCCCOc1c(-c2cc3ccccc3c3ccccc23)cc(-c2cc3ccccc3c3ccccc23)cc1-c1cc2ccccc2c2ccccc12 [Compound M-11] |  | 0.0181
3 | C=CC(=O)OCCOc1c(-c2cccc3c2sc2ccccc23)cc(-c2cccc3c2sc2ccccc23)cc1-c1cccc2c1sc1ccccc12 [Compound R-3, reference compound] | — | 
4 | C=CC(=O)OCCNC(=O)Oc1c(-c2cc3ccccc3c3ccccc23)cc(-c2cc3ccccc3c3ccccc23)cc1-c1cc2ccccc2c2ccccc12 [Compound M-4] |  | 0.0194
5 | C=CC(=O)OCCOc1c(-c2cc3ccccc3c3ccccc23)cc(-c2cc3ccccc3c3ccccc23)cc1-c1cc2ccccc2c2ccccc12 [Compound M-10] |  | 0.0160
6 | C=CC(=O)OCCNC(=O)Oc1c(-c2cccc3c2sc2ccccc23)cc(-c2cccc3c2sc2ccccc23)cc1-c1cccc2c1sc1ccccc12 [Compound M-3] |  | 0.0195
7 | C=CC(=O)Oc1c(-c2cccc3c2sc2ccccc23)cc(-c2cccc3c2sc2ccccc23)cc1-c1cccc2c1sc1ccccc12 [Compound R-2, reference compound] |  | 0.0070
8 | C=C(C)C(=O)OCCNC(=O)Oc1c(-c2cccc3c2sc2ccccc23)cc(-c2cccc3c2sc2ccccc23)cc1-c1cccc2c1sc1ccccc12 [Compound M-1] |  | 0.0222
9 | C=C(C)C(=O)OCCNC(=O)Oc1c(-c2cc3ccccc3c3ccccc23)cc(-c2cc3ccccc3c3ccccc23)cc1-c1cc2ccccc2c2ccccc12 [Compound M-2] |  | 0.0250
10 | C=CC(=O)OCCNC(=O)Oc1ccc(-c2cccc3c2sc2ccccc23)cc1-c1cccc2c1sc1ccccc12 [Compound R-1, reference compound] |  | 0.0115
